Several values for one entry are separate records, joined by “and”; a condition that tells them apart may be missing. Identical values can stand only once. The inconclusive results got no clear call from the source; some entries with a clear call stand among them for comparison. Potencies of inconclusive entries are doubtful fits and often do not repeat. Activity calls are given as the source filed them. The call rests on the fitted dose curve; in most records, active means well fitted curve in the direction sought with a large enough effect; inconclusive means small, poorly fitted or top-dose-only effect, or another doubt; inactive means no such curve, though single readings can be large or run the other way.
These compounds were tested against Microtubule-associated protein tau (Homo sapiens) (UniProt P10636) (assay: Confirmation Concentration-Response Assay for Inhibitors of Tau Fibril Formation, Fluorescence Polarization). Settings: recombinant tau K18 P301L (four-repeat tau fragment) heparin fibrillization, Alexa594 FP; series mostly up to 100 µM.
Summary of the method: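 Human tau K18 (Q242-E372) P301L, 15 uM unlabeled plus 0.24 uM Alexa 594-labeled, in 100 mM sodium acetate pH 7 with 20 uM heparin; 6 hr at 37 C. ThT (30 uM) added, 1 hr ambient, then Alexa 594 FP read.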

Chains of the proteins cited; added tags and fusions are not shown. Residues count along the entry.
UniProt P10636, 561-689 P618L limits assumed: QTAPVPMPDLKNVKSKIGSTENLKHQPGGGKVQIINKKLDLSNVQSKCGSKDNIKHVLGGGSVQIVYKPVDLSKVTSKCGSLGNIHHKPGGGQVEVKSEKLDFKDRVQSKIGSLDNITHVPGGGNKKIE
UniProt P10636, whole entry, looked up: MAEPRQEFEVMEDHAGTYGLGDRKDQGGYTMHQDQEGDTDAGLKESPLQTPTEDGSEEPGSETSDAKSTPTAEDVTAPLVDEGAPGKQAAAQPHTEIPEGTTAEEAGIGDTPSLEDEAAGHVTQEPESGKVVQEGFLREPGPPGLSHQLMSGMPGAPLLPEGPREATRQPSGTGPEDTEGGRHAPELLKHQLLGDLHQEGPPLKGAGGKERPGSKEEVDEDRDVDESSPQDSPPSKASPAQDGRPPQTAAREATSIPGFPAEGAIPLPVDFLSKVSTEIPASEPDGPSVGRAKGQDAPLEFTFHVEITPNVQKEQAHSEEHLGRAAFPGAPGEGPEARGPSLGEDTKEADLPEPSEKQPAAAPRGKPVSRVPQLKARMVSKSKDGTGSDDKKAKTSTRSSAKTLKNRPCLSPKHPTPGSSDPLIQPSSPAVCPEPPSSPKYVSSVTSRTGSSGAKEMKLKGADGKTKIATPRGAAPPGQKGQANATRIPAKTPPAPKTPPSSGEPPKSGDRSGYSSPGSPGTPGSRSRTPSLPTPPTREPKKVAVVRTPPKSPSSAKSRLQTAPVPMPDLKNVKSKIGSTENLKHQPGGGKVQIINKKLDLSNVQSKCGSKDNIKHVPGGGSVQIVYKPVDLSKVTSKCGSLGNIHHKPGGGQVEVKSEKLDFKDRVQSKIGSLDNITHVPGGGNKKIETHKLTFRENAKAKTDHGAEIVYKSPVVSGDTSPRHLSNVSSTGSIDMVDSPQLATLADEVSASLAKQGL

Compound | Potency
Nc1scc2c(C(=O)O)nn(-c3ccccc3)c(=O)c12 | active: 7.08 µM
Nc1cc(-c2ccccc2)c[nH]c1=O | inconclusive: 7.08 µM [inhibitor, full curve]
COc1ccc2c(c1)c(CC(=O)N1CCOCC1)c(C)n2C(=O)c1ccc(Cl)cc1 | inactive
CCOC(=O)c1nn(-c2ccccc2)c(=O)c2c(N)scc12 | inconclusive: 3.16 µM [inhibitor, full curve] and inconclusive: 10 µM [inhibitor, full curve]
O=C(CSc1nc2scc(-c3ccco3)c2c(=O)n1-c1ccccc1)N1CCOCC1 | inactive
CCOC(=O)c1nn(-c2ccccc2)c(=O)c2c(N)sc(C)c12 | inactive
COc1c(Cl)cccc1NC(=O)c1c(NC(=O)Cc2ccccc2)sc2c1CCCC2 | inactive
COc1ccc2oc(-c3ccc(NC(=O)c4ccc(N5CCOCC5)c([N+](=O)[O-])c4)cc3)nc2c1 | inactive
O=C(Cn1c(=O)c(CNc2ccccc2)cc2cc3c(cc21)OCCO3)Nc1ccccc1Cl | inconclusive: 50.1 µM [inhibitor, partial curve, poor fit]
CC(/C=C1\SC(=S)N(NC(=O)c2cccc(O)c2)C1=O)=C\c1ccccc1 | inconclusive: 17.8 µM [inhibitor, full curve]
Cc1ccc(N2C(=O)SC(Cc3ccccc3)C2=O)cc1 (stereo not drawn) | inconclusive: 56.2 µM [inhibitor, partial curve, poor fit]
O=C(Nc1ccc(-c2nc3ccccc3o2)cc1)c1ccc(N2CCOCC2)c([N+](=O)[O-])c1 | inconclusive: 0.708 µM [inhibitor, full curve, poor fit]
O=C(Cc1ccccc1)Nc1sc2c(c1C(=O)Nc1ccc(Br)cc1)CCCC2 | inactive
Nc1scc2c(C(=O)NCc3ccccc3)nn(-c3ccccc3)c(=O)c12 | inconclusive: 7.08 µM [inhibitor, full curve]
COc1cccc(/C=C2/SC(=S)N(CC(=O)Nc3nccs3)C2=O)c1 | inconclusive: 17.8 µM [inhibitor, partial curve, poor fit]
NC[C@H](O)c1ccc(O)c(O)c1 | inconclusive: 7.08 µM [inhibitor, full curve]
CC(C)(C)c1ccc(NC(=O)N2CCN(c3ccc([N+](=O)[O-])cn3)CC2)cc1 | inactive

Compound | Potency
O=C(NCc1cccnc1)C1CCN(S(=O)(=O)c2cccs2)CC1 | inactive
CN1CCc2sc(NC(=O)Cc3ccccc3)c(C(=O)Nc3ccc(Cl)cc3)c2C1 | inactive
CCOC(=O)c1ccc(S(=O)(=O)Nc2nc3cc(S(=O)(=O)NC4=NCCCCC4)ccc3s2)cc1 | inconclusive: 12.6 µM [inhibitor, full curve]
COc1ccc(Cl)cc1NC(=O)c1c(NCc2sccc2C)sc2c1CCCC2 | inconclusive: 1.26 µM [inhibitor, full curve]
Cn1cc(Cl)c(C(=O)Nc2cccc(Cl)c2Cl)n1 | inactive
CCOC(=O)c1c(N)sc2c1CN(C)CC2 | inactive
COc1ccc(S(=O)(=O)Nc2cc(Sc3ncn[nH]3)c(O)c3ccccc23)cc1 | inconclusive: 7.08 µM [inhibitor, full curve]
COc1ccc2[nH]c(=O)c(CNc3ccccc3OC)cc2c1 | inconclusive: 25.1 µM [inhibitor, full curve, poor fit]
COC(=O)c1c(NC(=O)CCCOc2ccc(C)cc2)sc2c1C(C(=O)OC)CC2 (stereo not drawn) | inconclusive: 3.98 µM [inhibitor, full curve]
Cc1ccc(NC(=O)c2c(NC(=O)Cc3ccccc3)sc3c2CCCC3)cc1 | inactive
Cc1ccc(N(C)S(=O)(=O)c2nnc(NC(=O)C3CCCCC3)s2)cc1 | inactive
Nc1scc2c(C(=O)N3CCOCC3)nn(-c3ccccc3)c(=O)c12 | inconclusive: 8.91 µM [inhibitor, full curve]
Cc1ccc(C(=O)Nc2nc(=O)n(C(=O)CC(C)C)s2)cc1 | inconclusive: 3.16 µM [inhibitor, partial curve, poor fit]
Nc1c(-c2ccccc2)cc[nH]c1=O | inconclusive: 12.6 µM [inhibitor, partial curve, poor fit]
Nc1scc2c(CO)nn(-c3ccccc3)c(=O)c12 | inconclusive: 5.01 µM [inhibitor, full curve]
COc1ccc(OC)c(NC(=O)c2c(NCc3cccs3)sc3c2CCCC3)c1 | inactive
